These are yes or no findings as the source states them, for the method shown. Some entries that bind do so weakly or less than the wild type. Sequences can lack the tags named with a protein.
Biological target: T1, LexA fusion of the cytoplasmic tail of human TMIGD1 (AA 241-262) (human) (UniProt Q6UXZ0)
T1 sequence: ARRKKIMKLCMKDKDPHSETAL
Test: two-hybrid; screen: LexA-TMIGD1 cytoplasmic tail (AA 241-262) as bait in S. cerevisiae L40, day 9.5/10.5 mouse embryo cDNA library; selection on SD-THULL with 1 mM 3-aminotriazole, 30 °C

- binding: binds
B1: murine SYNJ2BP AA 1-105 (clone isolated from the yeast two-hybrid library) (domain or fragment, UniProt Q9D6K5 1-105)
chain: MNGRVDYLVTEEEINLTRGPSGLGFNIVGGTDQQYVSNDSGIYVSRIKEDGAAAQDGRLQEGDKILSVNGQDLKNLLHQDAVDLFRNAGCAVSLRVQHRLPVQNG
